Taken from: PubChem BioAssay AID1259307 (Sanger Institute, 2017)
This is an unselected part of 794 deposited reagents. 15 of all reagents (1.9%) count as active. 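Calls reflect lethality without any drug; synergy scores did not enter the calls.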 No viability above 1 is reported: the scale is capped. Not all columns of the deposit are shown. No sequences are given here. Not given: the amount of reagent, the time to read-out.

Aim: 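Screen of kinase gene silencing for colorectal cancer cell killing and drug cooperation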 (primary screen)
Cell system: SW620 colorectal cancer cells
Knock-down reagent: siRNA pool against human genes
Challenge: anchor drugs BYL719 at 1 µM, cetuximab at 5 µg/ml or trametinib at 10 nM, each beside a DMSO vehicle arm
Measured: 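Per-well viability versus non-targeting control pool, replicate-averaged, robust z-score from controls; synergy scores for BYL719 1 µM, cetuximab 5 µg/ml, trametinib 10 nM against DMSO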
Direction: viability robust z-score, no drug and viability vs control, no drug: higher = more viable cells
Hit rule: 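a knock-down counts as lethal alone if its drug-free robust viability z-score is lower than -3, regardless of synergy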
Meaning of the calls: active = essential (lethal alone); inactive = no change alone

With DYRK3, what was measured?
viability robust z-score, no drug: -0.0105; viability vs control, no drug: 0.931; outcome: inactive

What is on record for PIK3CA?
viability robust z-score, no drug: 0.28; viability vs control, no drug: 0.958; outcome: inactive

What is on record for MAPKAPK3?
viability robust z-score, no drug: -0.0703; viability vs control, no drug: 0.926; outcome: inactive

With NRBP1, what does the deposit list?
viability robust z-score, no drug: 0.736; viability vs control, no drug: 1; outcome: inactive

Which result is listed for TSSK2?
viability robust z-score, no drug: 0.507; viability vs control, no drug: 0.979; outcome: inactive

For NEK11, what does the deposit list?
viability robust z-score, no drug: -1.1; viability vs control, no drug: 0.831; outcome: inactive

For MTOR, what does the deposit list?
viability robust z-score, no drug: -0.855; viability vs control, no drug: 0.853; outcome: inactive

For ZAP70, what was measured?
viability robust z-score, no drug: 0.138; viability vs control, no drug: 0.945; outcome: inactive

How did the screen score MAP3K14?
viability robust z-score, no drug: -0.549; viability vs control, no drug: 0.881; outcome: inactive

For MAP3K3, what does the deposit list?
viability robust z-score, no drug: -0.738; viability vs control, no drug: 0.864; outcome: inactive

What did the screen give for CALM1?
viability robust z-score, no drug: 0.276; viability vs control, no drug: 0.958; outcome: inactive

Which result is listed for IRAK4?
viability robust z-score, no drug: 0.736; viability vs control, no drug: 1; outcome: inactive

Which result is listed for AGK?
viability robust z-score, no drug: 0.736; viability vs control, no drug: 1; outcome: inactive

How did the screen score ERBB3?
viability robust z-score, no drug: 0.736; viability vs control, no drug: 1; outcome: inactive

For BLK, what does the deposit list?
viability robust z-score, no drug: -1.03; viability vs control, no drug: 0.837; outcome: inactive

For SYK, how do the results read?
viability robust z-score, no drug: -0.0783; viability vs control, no drug: 0.925; outcome: inactive

With CHUK, what does the deposit list?
viability robust z-score, no drug: -0.275; viability vs control, no drug: 0.907; outcome: inactive

With CERK, what does the deposit list?
viability robust z-score, no drug: 0.736; viability vs control, no drug: 1; outcome: inactive

What did the screen give for TBCK?
viability robust z-score, no drug: 0.17; viability vs control, no drug: 0.948; outcome: inactive

Which result is listed for LCK?
viability robust z-score, no drug: -1.02; viability vs control, no drug: 0.838; outcome: inactive

Which result is listed for NEK3?
viability robust z-score, no drug: 0.736; viability vs control, no drug: 1; outcome: inactive

What is on record for ULK2?
viability robust z-score, no drug: 0.354; viability vs control, no drug: 0.965; outcome: inactive

With EPHA1, how do the results read?
viability robust z-score, no drug: -1.09; viability vs control, no drug: 0.832; outcome: inactive

With TRIB1, what does the deposit list?
viability robust z-score, no drug: -1.39; viability vs control, no drug: 0.804; outcome: inactive

How did the screen score DGUOK?
viability robust z-score, no drug: -0.635; viability vs control, no drug: 0.873; outcome: inactive

What is on record for PASK?
viability robust z-score, no drug: 0.0168; viability vs control, no drug: 0.934; outcome: inactive

With PIK3R5, what was measured?
viability robust z-score, no drug: -0.122; viability vs control, no drug: 0.921; outcome: inactive

Which result is listed for PDXK?
viability robust z-score, no drug: 0.736; viability vs control, no drug: 1; outcome: inactive

For PRKCG, how do the results read?
viability robust z-score, no drug: -0.149; viability vs control, no drug: 0.918; outcome: inactive

What did the screen give for CKMT1B?
viability robust z-score, no drug: 0.0466; viability vs control, no drug: 0.936; outcome: inactive

With TP53BP1, what was measured?
viability robust z-score, no drug: 0.736; viability vs control, no drug: 1; outcome: inactive

What is on record for HCK?
viability robust z-score, no drug: 0.627; viability vs control, no drug: 0.99; outcome: inactive

With ROS1, how do the results read?
viability robust z-score, no drug: 0.596; viability vs control, no drug: 0.987; outcome: inactive

Which result is listed for DYRK4?
viability robust z-score, no drug: 0.5; viability vs control, no drug: 0.978; outcome: inactive

With ITPKC, how do the results read?
viability robust z-score, no drug: 0.736; viability vs control, no drug: 1; outcome: inactive

What did the screen give for ARAF?
viability robust z-score, no drug: 0.61; viability vs control, no drug: 0.988; outcome: inactive
